# Laboratory results from publication PMC5996148.
# Several values for one entry are separate records, joined by “and”; a condition that tells them apart may be missing. Equal entries are not always repeated. This is one part of the list.
# Columns and labels:
# Experiment in all cases: protein microarray (ProtoArray v5.0), streptavidin-Alexa Fluor 647
# Settings in all cases: 3'-biotin; 20 mM Tris (pH 7.5), 5 mM MgCl2, 100 mM KCl, 0.1% Tween-20, A/T-rich and random oligonucleotide blockers; temperature not stated; high values mean tight binding
# ACMSD (human) = test system: ACMSD (human)
# ACP1 (human) = test system: ACP1 (human)
# ACPP (human) = test system: ACPP (human)
# ACRV1 (human) = test system: ACRV1 (human)
# ACSL5 (human) = test system: ACSL5 (human)
# ACTA2 (human) = test system: ACTA2 (human)
# ACTC1 (human) = test system: ACTC1 (human)
# ACTG2 (human) = test system: ACTG2 (human)
# ACTL7B (human) = test system: ACTL7B (human)
# ACTN2 (human) = test system: ACTN2 (human)
sequence,measurement,setting,value
GGGAGGCTGAGGCAGG [G4-1 biotinylated (PQS2)],binding signal,ACMSD (human),-0.308 z-score
same,binding signal,ACP1 (human),-0.331 z-score and -0.326 z-score
same,binding signal,ACPP (human),-0.325 z-score
same,binding signal,ACRV1 (human),-0.31 z-score
same,binding signal,ACSL5 (human),-0.321 z-score
same,binding signal,ACTA2 (human),-0.321 z-score
same,binding signal,ACTC1 (human),-0.289 z-score
same,binding signal,ACTG2 (human),-0.296 z-score
same,binding signal,ACTL7B (human),-0.329 z-score
same,binding signal,ACTN2 (human),-0.348 z-score
